Experimental data from patent publication US12578273B2, “Ph-reversible leuco-BODIPY probe for in situ visualization of extracellular vesicles and their secretion from living cells” (The Chinese University of Hong Kong, priority 2021, dated 2026).

Assay: Confocal imaging of phenol red-free medium with dye in the absence of seeded cells (false positive signals)

| SMILES | fluorescence signals in medium without cells (50 nM dye, 3 h post-incubation) | fluorescence signals in medium without cells (2 μM dye, 3 h post-incubation) | fluorescence signals in medium without cells (2 μM dye, 15 h post-incubation) |
| --- | --- | --- | --- |
| CN(C)CCNC(=O)CCc1ccc2n1[B-](F)(F)[N+]1=C(c3ccc[nH]3)C=CC1=C2 [LysoTracker™ Red, reference compound] | false positive dot-like or speck-like signals | severe background emission |  |
| CCOC(=O)C(=Cc1ccc2n1[B-](F)(F)n1c(C=C(C(=O)OCC)C(=O)OCC)ccc1C2(OC)c1ccncc1)C(=O)OCC [leuco-BODIPY] |  | no detectable fluorescence | limited signals |
